# PubChem BioAssay AID1159584, Peter MacCallum Cancer Centre – 2016
# Aim: 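Genes that CDH1-null MCF10A cells selectively depend on to survive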 (primary screen)
# System: human MCF10A breast epithelial cells, parental and CDH1-null
# Knock-down reagent: siRNA against human genes
# Detection: 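ATP luminescence (CellTiter-Glo) viability per line relative to mean mock wells over all plates, and the ratio of CDH1-null to parental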
# Scale: CDH1-null / parental viability ratio: higher = CDH1-null cells survive relatively better than parental; CDH1-null viability vs mock: higher = more viable CDH1-null cells; parental viability vs mock: higher = more viable parental cells
# This is an unselected part of about 18,000 deposited reagents. No sequences are given here. Not stated in the record: the amount of reagent, the time to read-out.
gene,CDH1-null / parental viability ratio,CDH1-null viability vs mock (fraction of mock),parental viability vs mock (fraction of mock)
TTBK2,0.76,0.54,0.71
LIMS3,1.24,1.08,0.87
USP6,1.17,0.74,0.63
VPS18,0.87,0.7,0.8
SASH3,1.25,0.99,0.79
SLC10A7,1.07,0.96,0.9
ELOA2,1.16,1.16,1
MRPS22,1.1,1.03,0.94
CFAP184,0.88,0.69,0.78
COL14A1,1.01,0.77,0.76
USO1,0.83,0.6,0.72
KRTAP6-1,1.28,1.1,0.86
VLDLR,1.07,0.94,0.88
FBXO4,0.94,0.88,0.94
SLC39A13,0.82,0.62,0.76
OR1C1,1.11,0.73,0.66
FAM222B,1,0.6,0.6
LATS1,1,0.86,0.86
NDUFV2,0.94,0.74,0.79
RFPL4A,1,0.98,0.98
FZR1,1.38,0.94,0.68
CSE1L,0.58,0.36,0.62
RPA4,0.71,0.62,0.87
S100A2,1.01,0.88,0.87

Continued (9 carried over from the part before).
gene,CDH1-null / parental viability ratio,CDH1-null viability vs mock (fraction of mock),parental viability vs mock (fraction of mock)
OR1C1,1.11,0.73,0.66
FAM222B,1,0.6,0.6
LATS1,1,0.86,0.86
NDUFV2,0.94,0.74,0.79
RFPL4A,1,0.98,0.98
FZR1,1.38,0.94,0.68
CSE1L,0.58,0.36,0.62
RPA4,0.71,0.62,0.87
S100A2,1.01,0.88,0.87
DEFB1,0.79,0.55,0.7
FOXA1,0.91,0.52,0.57
OVCH2,0.98,1.04,1.06
TIGIT,0.99,0.96,0.97
ZPBP2,1,0.78,0.78
TTC23,0.73,0.64,0.88
CDAN1,1,0.9,0.9
SLC38A10,1.36,0.75,0.55
ST20-AS1,1.11,1,0.9
F13A1,1.01,0.69,0.68
IGSF3,1.13,0.89,0.79
SPOCK2,1.2,0.84,0.7
DPP8,1.23,0.59,0.48
TP73,1.05,0.9,0.86
SAT2,0.9,0.92,1.02
GPR160,0.81,0.76,0.94
ABHD15,0.85,0.5,0.59
GCH1,1.04,0.99,0.95
PLIN2,1.83,0.84,0.46
MARCO,0.93,0.84,0.9
SPRR3,0.66,0.61,0.92
H1-2,0.84,0.76,0.9
ORC2,1.06,0.74,0.7
ITPRIP,1.15,1.15,1
LRP1B,1.14,1,0.88
C10orf62,1.53,0.52,0.34
MEOX2,0.99,0.89,0.9
AXIN2,1.08,0.82,0.76
SPIN2B,0.99,0.77,0.78
TRPM3,1.64,0.36,0.22
TRAPPC3,1.06,0.56,0.53
RABL2A,0.48,0.29,0.6
RIMS1,1.08,0.93,0.86
CHSY3,0.83,0.73,0.88
SAR1B,1.08,0.84,0.78
NRDC,0.79,0.55,0.7
SRFBP1,1.22,0.83,0.68
VGF,0.89,0.7,0.79
FLG2,1.3,0.6,0.46
HRH2,0.76,0.5,0.66
FBXL15,1.2,0.55,0.46
EHD2,1.3,1.04,0.8
SPDL1,1.01,0.68,0.67
RASL12,0.88,0.88,1
